Source: paper PMC3146506

Sequences of proteins named here, by UniProt entry; tags and fusion partners are left off. A change or cut given only in a name is not applied to a line headed by its entry.
UniProt P05549: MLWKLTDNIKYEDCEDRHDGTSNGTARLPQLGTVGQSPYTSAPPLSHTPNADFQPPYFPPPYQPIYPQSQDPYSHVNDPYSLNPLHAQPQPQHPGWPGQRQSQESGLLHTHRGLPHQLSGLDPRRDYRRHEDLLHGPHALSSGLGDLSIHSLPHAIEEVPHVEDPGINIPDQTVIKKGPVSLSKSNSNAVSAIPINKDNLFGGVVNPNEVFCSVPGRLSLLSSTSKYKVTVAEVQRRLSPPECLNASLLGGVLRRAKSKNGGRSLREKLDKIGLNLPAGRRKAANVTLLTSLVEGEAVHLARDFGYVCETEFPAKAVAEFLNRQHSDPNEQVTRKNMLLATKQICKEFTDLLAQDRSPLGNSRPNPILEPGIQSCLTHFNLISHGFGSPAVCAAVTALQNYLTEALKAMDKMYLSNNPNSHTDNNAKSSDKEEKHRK

What was measured:
[1] = target: TFAP2A (AP-2alpha) in HeLa nuclear extract (UniProt P05549); experiment: EMSA, supershift; conditions: 20 µl reactions set up on ice, 15 min: 1 µl HeLa nuclear extract, 1 µl dI/dC (10 units/ml), 11.5 µl 2x buffer, protein in an extract, label: 32P end label
[2] = target: TFAP2A (AP-2alpha) in HeLa nuclear extract (UniProt P05549); experiment: competition with a labelled probe; conditions: 100-fold excess unlabeled, competes Bmp2 I, II and Bmp4 I, III probes; 20 µl reactions set up on ice, 15 min: 1 µl HeLa nuclear extract, 1 µl dI/dC (10 units/ml), 11.5 µl 2x buffer; protein in an extract
[3] = competed by 100x cold TFAP2 oligo, supershifted by anti-TFAP2

GAGTGAGCGCCCAAGGCGAGCGGGC (double strand) [Bmp2 AP-2 I]
binding result [1, 3]: binds

AGGGAGGGGCCGCTGGGGGGAAAGA (double strand) [Bmp4 AP-2 III]
binding result [1, 3]: binds

GACACTTGGCCCGAGGGCTCGGAGC (double strand) [Bmp2 AP-2 II]
binding result [1, 3]: binds

AGTAGAAGCTGGGCCCCAGGCGTGGCGCTT (double strand) [TFAP2 binding oligo (cold competitor)]
binding result [2]: binds

GAGGCGAGGCCCCGTGGCTGGATGGG (double strand) [Bmp4 AP-2 II]
binding result ([1]; bound faster-moving unknown proteins, neither competed nor supershifted): no binding

AAAAAGGGGCCAAAGGGCACTTTGT (double strand) [Bmp4 AP-2 I]
binding result [1, 3]: binds

Construct, isoform or probe ends are uncertain for at least one entry. Where cells or extracts were used, other partners may take part. For part of these data: Negatives hold for the conditions tested.
